These are yes or no findings as the source states them, for the method shown. Binding seen in cells or lysates may run through a third protein. A yes stands for co-enrichment or nearness to the bait. Other partners may have been found.
B1: NOVA1 (protein, UniProt Q80WA4 1-474)
chain: MAAAPIQQNGTHTGVPIDLDPPDSRKRPLEAPPEAGSTKRTNTGEDGQYFLKVLIPSYAAGSIIGKGGQTIVQLQKETGATIKLSKSKDFYPGTTERVCLIQGTIEALNAVHGFIAEKIREMPQNVAKTEPVSILQPQTTVNPDRIKQVKIIVPNSTAGLIIGKGGATVKAIMEQSGAWVQLSQKPDGINLQERVVTVSGEPEQNRKAVELIIQKIQEDPQSGSCLNISYANVTGPVANSNPTGFPYANTAEVLPTAAAAAGLLGHANLAGVAAFPAVLSGFTGNDLVAITSALNTLASYGYNLNTLGLGLSQAAATGALAAAAASANPAAAAANLLATYASEASASGSTAGGTAGTFALGSLAAATAATNGYFGAASPLAASAILGTEKSTDGSKDVVEIAVPENLVGAILGKGGKTLVEYQELTGARIQISKKGEFVPGTRNRKVTITGTPAATQAAQYLITQRITYEQGVR

Amino acid sequences for entries named in this document (tags omitted).
UniProt Q66H76: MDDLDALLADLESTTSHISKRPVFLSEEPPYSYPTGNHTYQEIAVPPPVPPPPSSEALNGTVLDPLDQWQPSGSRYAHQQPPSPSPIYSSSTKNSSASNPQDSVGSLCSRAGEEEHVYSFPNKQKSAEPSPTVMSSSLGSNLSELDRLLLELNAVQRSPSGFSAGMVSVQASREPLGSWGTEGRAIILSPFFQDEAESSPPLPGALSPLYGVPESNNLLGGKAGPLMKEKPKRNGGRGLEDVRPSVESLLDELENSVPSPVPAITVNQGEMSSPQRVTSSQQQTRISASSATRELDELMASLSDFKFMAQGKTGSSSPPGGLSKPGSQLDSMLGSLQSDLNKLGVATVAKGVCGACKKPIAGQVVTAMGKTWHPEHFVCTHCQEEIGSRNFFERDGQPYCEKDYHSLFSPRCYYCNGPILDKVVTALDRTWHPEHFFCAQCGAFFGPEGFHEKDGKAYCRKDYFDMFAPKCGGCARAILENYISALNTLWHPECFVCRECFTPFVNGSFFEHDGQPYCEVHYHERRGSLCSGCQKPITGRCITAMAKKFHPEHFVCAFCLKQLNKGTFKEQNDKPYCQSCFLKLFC
UniProt F2Z3T9: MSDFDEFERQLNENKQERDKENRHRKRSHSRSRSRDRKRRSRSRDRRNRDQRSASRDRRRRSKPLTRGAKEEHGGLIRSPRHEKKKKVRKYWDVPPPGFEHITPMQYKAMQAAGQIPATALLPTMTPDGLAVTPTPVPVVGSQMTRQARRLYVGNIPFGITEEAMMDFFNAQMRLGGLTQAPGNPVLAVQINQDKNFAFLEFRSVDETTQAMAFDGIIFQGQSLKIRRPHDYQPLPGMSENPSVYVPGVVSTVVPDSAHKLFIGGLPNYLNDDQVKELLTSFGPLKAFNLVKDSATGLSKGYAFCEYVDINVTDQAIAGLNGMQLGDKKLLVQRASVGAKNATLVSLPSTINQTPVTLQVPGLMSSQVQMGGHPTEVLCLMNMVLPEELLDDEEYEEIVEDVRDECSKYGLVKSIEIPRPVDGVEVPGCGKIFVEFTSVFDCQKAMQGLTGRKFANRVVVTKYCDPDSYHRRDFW

Molecular target: paxillin (endogenous, rat primary neurons) (rat (endogenous in primary neuronal cultures)) (UniProt Q66H76)
Assay: affinity purification with mass spectrometry; paxillin immunoprecipitated (paxillin polyclonal antibodies on protein G) from lysates of DIV7 rat primary neuronal cultures treated with BDNF with or without IPZ pretreatment; SDS-PAGE, in-gel digestion, LC-MS/MS

| Molecule | binding |
| --- | --- |
| U2AF2 (rat) (from UniProt F2Z3T9 1-475) | binds |
| B1 | binds |

— PMC12583701
